Experimental data: PubChem BioAssay AID743255 (National Center for Advancing Translational Sciences (NCATS), 2014)
Among all 390,000 compounds or so, about 910 (0.23%) were called active. Inconclusive means that the source gave no clear call. Such entries were picked first, then a sample of the others. Calls come from the whole dose curve; as a rule, active = well fitted inhibition curve with a large enough effect; inconclusive = small, poorly fitted or top-dose-only effect; inactive = no such curve, though single readings can be large or run the other way. A potency beside an inconclusive call is a rough fit, not a confirmed value.

Amino acid sequences for entries named in this document (tags omitted). A change or cut given only in a name is not applied to a line headed by its entry.
UniProt O94782: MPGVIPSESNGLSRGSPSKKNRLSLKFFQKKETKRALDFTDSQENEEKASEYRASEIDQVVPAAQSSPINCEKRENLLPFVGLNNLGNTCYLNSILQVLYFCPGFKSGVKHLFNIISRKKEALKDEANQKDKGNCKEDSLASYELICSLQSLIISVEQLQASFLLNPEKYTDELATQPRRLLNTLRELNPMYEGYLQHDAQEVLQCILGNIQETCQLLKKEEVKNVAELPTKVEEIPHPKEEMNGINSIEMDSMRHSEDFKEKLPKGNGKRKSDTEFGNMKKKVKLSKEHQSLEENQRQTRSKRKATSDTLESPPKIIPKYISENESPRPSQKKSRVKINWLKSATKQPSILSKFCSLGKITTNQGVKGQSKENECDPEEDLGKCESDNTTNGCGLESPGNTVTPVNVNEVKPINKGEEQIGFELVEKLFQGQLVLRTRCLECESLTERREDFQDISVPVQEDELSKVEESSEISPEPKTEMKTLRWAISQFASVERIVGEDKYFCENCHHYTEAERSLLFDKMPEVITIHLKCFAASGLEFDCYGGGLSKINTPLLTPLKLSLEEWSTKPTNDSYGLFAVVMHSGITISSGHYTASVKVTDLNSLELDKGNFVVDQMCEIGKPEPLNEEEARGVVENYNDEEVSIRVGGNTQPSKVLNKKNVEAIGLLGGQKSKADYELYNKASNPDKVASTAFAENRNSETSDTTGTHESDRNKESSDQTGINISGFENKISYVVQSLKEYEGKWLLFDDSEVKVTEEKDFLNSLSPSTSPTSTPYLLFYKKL

Target: Ubiquitin carboxyl-terminal hydrolase 1 (Homo sapiens) (UniProt O94782)
Experiment: Inhibitors of USP1/UAF1: Primary Screen; note: nearly all actives have a fitted effect of over 60% in size
Details: recombinant USP1/UAF1, Ub-Rhodamine cleavage fluorescence; activity change, negative = inhibition: at 57.1 µM (top of the series)
How it was run: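 Step one: compound is pinned into 1nM USP1/UAF1 in HEPES pH 7.8 buffer with TCEP. Step two: 15 min room-temperature incubation. Step three: Ub-Rho (150nM final) starts cleavage, tracked by fluorescence over six one-minute reads.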
% is set by controls: 0 for no effect and ±100 for the full control effect; potency is the fitted concentration of half-maximal effect.

Row | SMILES | Potency | activity change, negative = inhibition
1 | CCC(C(=O)NCCc1ccc(S(N)(=O)=O)cc1)c1ccccc1 (configuration not stated) | inconclusive: 5.01 µM [inhibitor, single point] | –
2 | CCOC(=O)N1CCC(N2C(=O)c3ccccc3C2Nc2ccc(S(=O)(=O)N(CC)CC)cc2)CC1 (configuration not stated) | inconclusive: 44.7 µM [inhibitor, partial curve, poor fit] | –
3 | Oc1ccccc1C(Nc1nccs1)c1ccc2cccnc2c1O (configuration not stated) | – | inactive: -0.668%
4 | O=C(CN1CCSc2ccccc21)N1CCN(c2ccc(F)cc2)CC1 | inconclusive: 0.251 µM [inhibitor, full curve, poor fit] | –
5 | NC1=NC(c2cccc(O)c2)n2c(nc3ccccc32)N1 (configuration not stated) | inconclusive: 15.8 µM [inhibitor, partial curve] | –
6 | COc1ccc(CNC(=S)NCc2ccc(OC)cc2)cc1 | – | inactive: -22%
7 | N#Cc1c(SCC(=O)Nc2cccc(C(F)(F)F)c2)sc2c(O)cc(=O)[nH]c12 | inconclusive: 50.1 µM [inhibitor, partial curve, poor fit] | –
8 | O=C(NNC(=S)Nc1ccccc1)c1cccnc1 | – | inactive: -21.2%
9 | CCCn1c(C(CO)Nc2nc(C)cs2)nc2ccccc21 (configuration not stated) | inconclusive: 0.251 µM [inhibitor, full curve, poor fit] | –
10 | C=CCn1c(=O)/c(=C/c2ccc(C)o2)s/c1=C(/C#N)C(=O)c1ccccc1 | inconclusive: 28.2 µM [inhibitor, single point] | –
11 | COc1ccccc1OCC(=O)NCC(c1ccc(Cl)cc1)N1CCOCC1 (configuration not stated) | inconclusive: 50.1 µM [inhibitor, partial curve, poor fit] | –
12 | O=C(/C=C/c1cccs1)c1ccc(N2CCOCC2)cc1 | – | inactive: -16.9%
13 | CCCCN1C(=O)/C(=C2/C=CC=CN2C)SC1=S | inconclusive: 15.8 µM [inhibitor, partial curve] | –
14 | Cc1ccc(NC(=O)Cn2c(=O)n(CCCCC(=O)NCc3ccccc3Cl)c(=O)c3ccccc32)cc1 | inconclusive: 0.447 µM [inhibitor, full curve] | –
15 | COc1ccc(/C=N/NC(=O)c2nn(-c3ccccc3)c(=O)c3c(N)scc23)cc1 | inconclusive: 20 µM [inhibitor, partial curve] | –
16 | COc1ccccc1N1C(C)=CC(=C(C#N)c2nc3ccccc3s2)C=C1C | inconclusive: 31.6 µM [inhibitor, partial curve, poor fit] | –
17 | O=C(COc1ccccc1)NCc1nnc2c3ccccc3c(-c3ccccc3)nn12 | inconclusive: 12.6 µM [inhibitor, partial curve, poor fit] | –
18 | CC(=O)Cn1cnc2c(cnn2-c2ccc(C)c(C)c2)c1=O | – | inactive: -28%
19 | Nc1c(C(=O)Nc2ccc(S(=O)(=O)N3CCCC3)cc2)sc2nc3ccc(OC(F)(F)F)cc3cc12 | inconclusive: 28.2 µM [inhibitor, single point] | –
20 | COc1ccc(CNC(=O)c2ccc3c(c2)N(Cc2ccc(C)cc2)CCS3)cc1 | inconclusive: 44.7 µM [inhibitor, partial curve, poor fit] | –
21 | Cc1ccc(N2CC(NC(=O)c3cc4ccccc4o3)CC2=O)cc1C (configuration not stated) | inconclusive: 50.1 µM [inhibitor, partial curve, poor fit] | –
22 | CCc1ccc(C2=NN(CCC(=O)NCCc3ccc(OC)c(OC)c3)C(=O)CC2)cc1 | – | inactive: 17.6%
23 | CCCOc1ccc(-c2nonc2NC(=O)c2cc(OC)c(OC)c(OC)c2)cc1OCCC | inconclusive: 12.6 µM [inhibitor, partial curve] | –

Row | SMILES | Potency | activity change, negative = inhibition
24 | Cc1nc2ncnn2c(C)c1CCC(=O)NC(C)CCc1ccco1 (configuration not stated) | – | inactive: -6.39%
25 | O=[N+]([O-])c1cc(-c2ccc(/C=N/c3nc4ccccn4c3-c3ccco3)o2)ccc1Cl | inconclusive: 50.1 µM [inhibitor, partial curve, poor fit] | –
26 | Cc1cc2cc(CNC(=S)Nc3ccc(OC(F)F)cc3)ccc2n1C | inconclusive: 35.5 µM [inhibitor, single point] | –
27 | Cc1ccc(OCC(=O)OC2=C(C(=O)c3ccccc3)N(C)S(=O)(=O)c3ccccc32)cc1 | – | inactive: -5.09%
28 | Cc1ccc(CNC(=O)C2COc3ccccc3C2)cc1 (configuration not stated) | inconclusive: 7.08 µM [inhibitor, partial curve, poor fit] | –
29 | CN(C)S(=O)(=O)c1ccc(NC(=O)CSc2nnc(-c3ccco3)n2N)cc1 | inconclusive: 2 µM [inhibitor, partial curve] | –
30 | CC(C)(C)OC(=O)N1Cc2ccccc2C[C@H]1C(=O)O | inconclusive: 39.8 µM [inhibitor, partial curve] | –
31 | O=C1c2ccccc2[C@@H]2C[C@@H](O)[C@H](Nc3cccc4ccccc34)CCN12 | inconclusive: 39.8 µM [inhibitor, single point] | –
32 | COc1ccccc1CNC(=O)CC(c1ccc(C)cc1)N1Cc2ccccc2C1=O (configuration not stated) | – | inactive: -22%
33 | CC(C)c1ccc(OCC(=O)Nc2c(C(=O)c3ccc(F)cc3)oc3ccccc23)cc1 | inconclusive: 28.2 µM [inhibitor, partial curve] | –
34 | Cc1ccc(S(=O)(=O)N(C)C)cc1NC(=O)CN1C(=O)NC(Cc2ccccc2)C1=O (configuration not stated) | inconclusive: 0.316 µM [inhibitor, full curve] | –
35 | COc1ccc(-n2c(SCC(=O)C(C)(C)C)nc3ccsc3c2=O)cc1 | inconclusive: 20 µM [inhibitor, partial curve] | –
36 | C=CC[C@@H](CC(=O)N[C@H](CO)Cc1ccccc1)C(=O)N[C@@H](C)COC(=O)[C@@H](CC=C)CC(=O)OC(C)(C)C | inconclusive: 50.1 µM [inhibitor, partial curve, poor fit] | –
37 | CCOc1ccc(-c2nc(=S)[nH][nH]2)cc1 | – | inactive: -6.75%
38 | CCCCCSc1nc2sc3c(c2c(=O)n1-c1ccc(OC)cc1)CCN(C(C)=O)C3 | inconclusive: 3.98 µM [inhibitor, partial curve] | –
39 | OCC1OC(n2cnc3c(=S)nc[nH]c32)CC1O (configuration not stated) | – | inactive: -8.04%
40 | Cc1ccc(N/N=C(\Cc2nc3ccccc3[nH]2)c2ccccc2)cc1 | – | inactive: -14.7%
41 | CCCS(=O)(=O)N1CCC(C(=O)N2CCc3ccccc3C2)CC1 | inconclusive: 39.8 µM [inhibitor, partial curve, poor fit] | –
42 | O=C(Oc1cccc(C(=S)N2CCOCC2)c1)c1cc([N+](=O)[O-])cc([N+](=O)[O-])c1 | – | inactive: 7.7%
43 | CCc1ccc(S(=O)(=O)c2cn(Cc3ccccc3)c3cc(F)c(F)cc3c2=O)cc1 | inconclusive: 8.91 µM [inhibitor, single point] | –
44 | Cc1ccc2[nH]c3c(=O)n(CC(=O)N4CCCCC4)ncc3c2c1 | inconclusive: 7.08 µM [inhibitor, single point] | –
45 | CCOC(=O)c1ccc(N/C=C/C(=O)C(C)(C)C)cc1 | inconclusive: 44.7 µM [inhibitor, partial curve, poor fit] | –
46 | COc1ccc(C(=O)Nc2ccc(-n3nncc3-c3ccccc3)cc2)cc1OC | inconclusive: 15.8 µM [inhibitor, partial curve, poor fit] | –

In a second layout: 2 of the compounds above.
Cc1ccc(OCC(=O)OC2=C(C(=O)c3ccccc3)N(C)S(=O)(=O)c3ccccc32)cc1
  activity change, negative = inhibition: inactive: -5.09%
Cc1ccc(CNC(=O)C2COc3ccccc3C2)cc1 (configuration not stated)
  Potency: inconclusive: 7.08 µM [inhibitor, partial curve, poor fit]

Later entries.

Row | SMILES | Potency | activity change, negative = inhibition
47 | Cc1cc2oc(=O)cc(C)c2c2occ(-c3ccc(Cl)cc3)c12 | – | inactive: -11%
48 | CCN1/C(=C/C=C/C=C/C=C/c2sc3ccccc3[n+]2CC)Sc2ccccc21 | inconclusive: 44.7 µM [inhibitor, partial curve] | –
49 | COc1ccc(OC)c2[nH]c(=O)c(CCNC(=O)c3cc4ccccc4o3)cc12 | inconclusive: 0.794 µM [inhibitor, full curve] | –
50 | Cc1cccc(NC(=O)Nc2cc(C)cc(C)n2)c1 | – | inactive: -12.3%
51 | CS(=O)(=O)N(C(=O)NC(=O)NC1CCS(=O)(=O)C1)C1CCCCC1 (configuration not stated) | inconclusive: 0.251 µM [inhibitor, full curve, poor fit] | –
52 | N#Cc1ccccc1 | – | inactive: -2.65%
53 | O=C(NCCCC1CCCC1)C1CCC(=O)N(Cc2ccc(Cl)cc2)C1 (configuration not stated) | – | inactive: -19%
54 | CCCCNC(=O)CCCn1c(=O)c2ccccc2n(Cc2cccc(Cl)c2)c1=O | – | inactive: -4.11%
55 | O=C(COc1ccccc1Cl)Nc1nnc(S(=O)(=O)N2CCCCCC2)s1 | inconclusive: 39.8 µM [inhibitor, partial curve, poor fit] | –
56 | Cn1c2ccccc2c2nnc(NN)nc21 | inconclusive: 22.4 µM [inhibitor, single point] | –
57 | O=C(CSc1nnc(CNC(=O)c2ccco2)o1)Nc1ccccc1F | – | inactive: -10.5%
58 | N#Cc1c(N)n(-c2cccc(Cl)c2)c2nc3ccccc3nc12 | inconclusive: 112 µM [inhibitor, partial curve, poor fit] | –
59 | Cc1cccc(NC(=O)C2CCC(CNS(=O)(=O)c3csc(C(N)=O)c3)CC2)c1C (configuration not stated) | inconclusive: 39.8 µM [inhibitor, partial curve] | –
60 | CC1CCN(C(=O)CN(c2ccc3c(c2)OCCO3)S(=O)(=O)c2ccccc2)CC1 | inconclusive: 17.8 µM [inhibitor, partial curve] | –
61 | C=C(C)[C@@H]1CC=C(C(=O)O)CC1 | inconclusive: 0.02 µM [inhibitor, full curve, poor fit] | –
62 | COc1ccc(OC)c(S(=O)(=O)Nc2ccc(-c3ccc4nncn4n3)cc2)c1 | – | inactive: -13.4%
63 | CCOc1ccc(CNc2nc3nc(C)c(Cc4ccccc4)c(=O)n3[nH]2)cc1 | – | inactive: -3.96%
64 | COc1cc(NC(=O)Nc2cccc(-c3noc(C)n3)c2)cc(OC)c1OC | inconclusive: 31.6 µM [inhibitor, partial curve] | –
65 | COc1cccc(N=Cc2c[nH][nH]c2=O)c1 | – | inactive: -18.5%
66 | Cc1ccc(Cl)cc1NC(=O)c1oc2ccc(S(=O)(=O)N(C)C3CCCCC3)cc2c1C | inconclusive: 0.708 µM [inhibitor, full curve] | –
67 | Cc1cccc(CS(=O)(=O)c2ncc(Cl)c(C(=O)Nc3c(C)cccc3C)n2)c1 | inconclusive: 70.8 µM [inhibitor, partial curve, poor fit] | –
